Laboratory results taken from publication PMC2743196.
Results are given in words; binding and its absence hold for the method and conditions named. Binding seen in cells or lysates may run through a third protein. Some binding calls cover weakened binding; strength is not graded here.

Sequences of proteins named here, by UniProt entry; tags and fusion partners are left off.
UniProt P97479: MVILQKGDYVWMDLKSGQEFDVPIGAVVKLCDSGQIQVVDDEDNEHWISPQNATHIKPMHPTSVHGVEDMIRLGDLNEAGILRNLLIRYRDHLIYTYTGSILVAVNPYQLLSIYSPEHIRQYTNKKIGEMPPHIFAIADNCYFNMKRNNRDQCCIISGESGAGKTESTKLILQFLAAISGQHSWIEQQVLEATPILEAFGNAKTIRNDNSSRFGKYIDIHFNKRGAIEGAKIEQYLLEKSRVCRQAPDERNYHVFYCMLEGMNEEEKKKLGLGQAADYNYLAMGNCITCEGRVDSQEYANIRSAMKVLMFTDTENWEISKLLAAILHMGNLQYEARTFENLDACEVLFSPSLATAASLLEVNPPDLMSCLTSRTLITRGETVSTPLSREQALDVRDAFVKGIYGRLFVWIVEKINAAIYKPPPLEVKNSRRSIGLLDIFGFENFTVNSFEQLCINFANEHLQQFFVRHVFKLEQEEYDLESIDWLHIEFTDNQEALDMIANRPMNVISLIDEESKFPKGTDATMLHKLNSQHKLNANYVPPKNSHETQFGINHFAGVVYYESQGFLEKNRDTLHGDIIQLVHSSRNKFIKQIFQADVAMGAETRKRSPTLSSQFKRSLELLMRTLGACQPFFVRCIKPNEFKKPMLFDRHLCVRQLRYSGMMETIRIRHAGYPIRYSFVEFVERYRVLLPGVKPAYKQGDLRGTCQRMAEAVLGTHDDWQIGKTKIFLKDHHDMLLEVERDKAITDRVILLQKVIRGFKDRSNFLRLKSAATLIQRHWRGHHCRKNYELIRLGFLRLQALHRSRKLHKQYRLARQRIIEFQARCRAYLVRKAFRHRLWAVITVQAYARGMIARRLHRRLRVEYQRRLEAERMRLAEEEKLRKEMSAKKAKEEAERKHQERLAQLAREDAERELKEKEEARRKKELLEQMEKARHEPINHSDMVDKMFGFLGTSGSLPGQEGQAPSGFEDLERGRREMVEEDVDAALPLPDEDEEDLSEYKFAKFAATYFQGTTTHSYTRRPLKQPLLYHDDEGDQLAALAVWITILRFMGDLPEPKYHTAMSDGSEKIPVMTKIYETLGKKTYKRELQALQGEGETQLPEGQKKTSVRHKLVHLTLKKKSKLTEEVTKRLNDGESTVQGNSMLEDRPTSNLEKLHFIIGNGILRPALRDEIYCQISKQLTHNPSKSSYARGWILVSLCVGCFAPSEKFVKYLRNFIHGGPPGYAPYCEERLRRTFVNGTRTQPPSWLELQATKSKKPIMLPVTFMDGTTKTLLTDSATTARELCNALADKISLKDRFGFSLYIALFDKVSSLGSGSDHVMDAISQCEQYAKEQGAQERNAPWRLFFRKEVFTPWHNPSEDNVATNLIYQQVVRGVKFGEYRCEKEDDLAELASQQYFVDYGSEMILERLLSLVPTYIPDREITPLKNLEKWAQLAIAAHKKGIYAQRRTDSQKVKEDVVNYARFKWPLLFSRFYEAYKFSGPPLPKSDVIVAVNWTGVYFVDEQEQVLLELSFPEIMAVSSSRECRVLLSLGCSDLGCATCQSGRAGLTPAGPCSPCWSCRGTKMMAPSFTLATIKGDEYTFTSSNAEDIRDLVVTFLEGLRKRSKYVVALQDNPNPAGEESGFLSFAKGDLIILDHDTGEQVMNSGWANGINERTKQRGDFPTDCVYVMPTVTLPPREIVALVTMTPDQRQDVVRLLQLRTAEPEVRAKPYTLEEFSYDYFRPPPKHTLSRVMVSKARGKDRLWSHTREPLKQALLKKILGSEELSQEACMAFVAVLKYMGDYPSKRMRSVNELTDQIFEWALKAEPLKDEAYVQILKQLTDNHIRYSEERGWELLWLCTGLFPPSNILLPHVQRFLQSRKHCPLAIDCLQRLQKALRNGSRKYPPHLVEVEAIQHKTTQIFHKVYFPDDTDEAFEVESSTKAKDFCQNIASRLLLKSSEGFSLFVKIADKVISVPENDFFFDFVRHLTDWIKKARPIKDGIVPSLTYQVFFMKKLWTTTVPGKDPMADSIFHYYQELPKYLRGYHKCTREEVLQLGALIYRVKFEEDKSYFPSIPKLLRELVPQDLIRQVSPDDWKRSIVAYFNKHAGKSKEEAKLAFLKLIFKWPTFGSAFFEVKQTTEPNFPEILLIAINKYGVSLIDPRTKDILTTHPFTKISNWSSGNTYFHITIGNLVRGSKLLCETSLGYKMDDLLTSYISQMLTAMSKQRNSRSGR

T1: twinfilin-2 (mouse (endogenous in inner ear sensory epithelia)) (UniProt Q9Z0P5)
T1 sequence: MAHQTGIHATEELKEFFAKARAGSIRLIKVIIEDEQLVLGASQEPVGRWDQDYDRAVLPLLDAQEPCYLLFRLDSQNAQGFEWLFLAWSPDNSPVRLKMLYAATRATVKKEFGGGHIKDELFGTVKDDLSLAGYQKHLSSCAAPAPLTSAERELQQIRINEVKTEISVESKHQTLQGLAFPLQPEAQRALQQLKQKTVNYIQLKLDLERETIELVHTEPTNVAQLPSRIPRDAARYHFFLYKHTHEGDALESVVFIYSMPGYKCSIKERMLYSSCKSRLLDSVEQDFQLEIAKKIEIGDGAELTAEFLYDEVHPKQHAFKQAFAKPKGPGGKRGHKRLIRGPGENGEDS


How the values were obtained:
[1] = molecular target: T1, twinfilin-2 (mouse (endogenous in inner ear sensory epithelia)); assay: co-IP; lysate of freshly isolated inner ear sensory epithelia of wild type mice at P28; 50 mM Tris-HCl pH 7.0, 150 mM NaCl, 1% Triton-X 100, 2 mM EDTA; precleared, incubated overnight at 4°C with anti-myosinVIIa, anti-twinfilin-1 or anti-twinfilin-2 antibody and protein A-Sepharose; Western blot
[2] = molecular target: myosinVIIa (mouse (endogenous in inner ear sensory epithelia)) (UniProt P97479); assay: as above

Row | binding [1] | binding [2] | Molecule
1 | binds |  | myosinVIIa (from UniProt P97479 1-2215)
2 |  | binds | twinfilin-2 (protein, UniProt Q9Z0P5 1-349) MAHQTGIHATEELKEFFAKARAGSIRLIKVIIEDEQLVLGASQEPVGRWDQDYDRAVLPLLDAQEPCYLLFRLDSQNAQGFEWLFLAWSPDNSPVRLKMLYAATRATVKKEFGGGHIKDELFGTVKDDLSLAGYQKHLSSCAAPAPLTSAERELQQIRINEVKTEISVESKHQTLQGLAFPLQPEAQRALQQLKQKTVNYIQLKLDLERETIELVHTEPTNVAQLPSRIPRDAARYHFFLYKHTHEGDALESVVFIYSMPGYKCSIKERMLYSSCKSRLLDSVEQDFQLEIAKKIEIGDGAELTAEFLYDEVHPKQHAFKQAFAKPKGPGGKRGHKRLIRGPGENGEDS
